# Data: PubChem BioAssay AID1487 (National Center for Advancing Translational Sciences (NCATS), 2009)
# This is one part of the list. Shown are side measurements of this screen, not its main read-out; they come without a call. Most of these compounds were active or inconclusive in the main read-out, so they are no random draw. Potencies come from curve fits of mixed quality, noted in brackets.
# Assay: qHTS Assay for Modulators of Lamin A Splicing
# Settings: HeLa LMNA splicing GFP/RFP minigene ratio, 48 h
# Summary of the method: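 Read-out is the ratio of GFP to DsRed2 object intensity, acquired by 488 nm laser-scanning cytometry on HeLa lamin A-EGFP minigene reporter cells. Compound incubation 48 hrs at 37 °C in Opti-MEM with 2% FBS; DMSO 0.5% final.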
# [1] = measured here: GFP splicing reporter channel
# [2] = measured here: RFP viability control channel
Compound,AC50 [1],AC50 [2]
CCN(CC)c1ccc(-n2cc3c(=O)n(C)c(=O)n(C)c3c2)cc1,"35.5 µM [rising, single point]","35.5 µM [rising, single point]"
O=C1C(Cl)=C(NCC2CCCO2)C(=O)N1CCc1ccccc1 (stereo not given),,"15.8 µM [rising, partial curve, poor fit]"
COC(=O)c1[nH]c2ccc(F)cc2c1NS(=O)(=O)c1ccc(OC)cc1,"10 µM [rising, partial curve]","7.94 µM [rising, partial curve]"
COC(=O)c1cc(S(=O)(=O)N2CCOCC2)ccc1Sc1ccccc1N,,"35.5 µM [rising, single point]"
Cc1ccc(S(=O)(=O)Nc2ccc(Oc3cccnc3)nc2)cc1,,"0.158 µM [falling, full curve, poor fit]"
Cc1ccc(N(C)C(=O)CCS(=O)(=O)c2cc3c(cc2Cl)NC(=O)CO3)cc1,"5.01 µM [falling, partial curve]","6.31 µM [falling, full curve, poor fit]"
O=C(Nc1cccc(Cl)c1)Nc1ccc2c(c1)OCO2,,"15.8 µM [rising, single point]"
C#CCOc1ccc(/C=C2\SC(=S)N(Cc3cccnc3)C2=O)cc1,"35.5 µM [rising, single point]",
FC(F)Oc1ccc(NC(=S)NCc2cccnc2)cc1,,"1.41 µM [falling, partial curve, poor fit]"
COc1ccccc1NC(=O)/C(=C/c1cccc([N+](=O)[O-])c1)c1ccccc1,,"35.5 µM [rising, single point]"
Cc1cccc(C(=O)Nc2ccc(S(=O)(=O)N(Cc3ccccc3)c3ccccc3)cc2)c1,,"0.0355 µM [falling, full curve, poor fit]"
CCn1c(SCC(=O)c2ccc(O)c(O)c2)nnc1-c1ccccc1OC,,"25.1 µM [rising, single point]"
OCCCNC(=S)Nc1ccc2nccnc2c1,"0.0112 µM [rising, full curve, poor fit]",
CCOc1ccccc1NC(=O)c1cccc(S(=O)(=O)N(Cc2ccccc2)c2ccccc2OC)c1,,"10 µM [rising, partial curve]"
Cc1ccccc1NC(=S)NC(NC(=O)c1ccccc1C)C(Cl)(Cl)Cl (stereo not given),"12.6 µM [falling, single point]","20 µM [falling, single point]"
O=[N+]([O-])c1cc(S(=O)(=O)Nc2ccccc2)ccc1N1CCN(c2ccccc2)CC1,,"12.6 µM [rising, partial curve, poor fit]"

# Another view of some results above.
Compound	AC50 [1]	AC50 [2]
Cc1cccc(C(=O)Nc2ccc(S(=O)(=O)N(Cc3ccccc3)c3ccccc3)cc2)c1		0.0355 µM [falling, full curve, poor fit]
CCn1c(SCC(=O)c2ccc(O)c(O)c2)nnc1-c1ccccc1OC		25.1 µM [rising, single point]
